Measurements published in PubChem BioAssay AID504834 (National Center for Advancing Translational Sciences (NCATS), 2011).
In all, about 320,000 compounds went through this assay and about 22,000 (6.9%) were called active. This list was built around the results that the source calls inconclusive (neither active nor inactive); the mix of calls is not that of the screen. Calls come from the whole dose curve; as a rule, active = well fitted inhibition curve with a large enough effect; inconclusive = small, poorly fitted or top-dose-only effect, or another doubt; inactive = no such curve, though single readings can be large or run the other way. Potencies of inconclusive entries are doubtful fits and often do not repeat.

Test: Primary qHTS for delayed death inhibitors of the malarial parasite plastid, 96 hour incubation
Conditions: P. falciparum luciferase reporter growth; series mostly up to 28.7 µM
Outline: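 96 h incubation, 37 C, 5% CO2, of luciferase-reporter P. falciparum-infected RBCs (2% hematocrit, 0.05% parasitemia final) with test compounds; endpoint luminescence.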
Potency is the fitted concentration of half-maximal effect.

Structure (SMILES)	Potency
COc1ccc(CCN2C(=O)CSC2=Nc2ccc(C)cc2C)cc1OC	inconclusive: 11.7 µM [inhibitor, single point]
O=S(=O)(c1ccc2ccccc2c1)N(CC1CO1)c1ccccc1 (stereo unspecified)	inactive
O=C(NCc1ccco1)c1cnn2c(C(F)(F)F)cc(-c3ccccc3)nc12	inactive
COC(=O)c1ccc(CSc2nnc(Nc3cccc(OC)c3)s2)o1	inconclusive: 5.22 µM [inhibitor, partial curve]
CCn1c(CNc2ccc(Cl)cc2)nnc1SCc1ccc(Cl)cc1	inactive
CCOC(=O)Nc1ccc(NC(=O)c2ccccc2F)cc1	inactive
COc1cccc(CCNC(=O)c2ccc(OC)c(OC3CCN(C(C)C)CC3)c2)c1	inactive
Cc1ccc(-n2nnnc2-c2cnc(-c3cccnc3)nc2C(F)(F)F)cc1	inconclusive: 18.5 µM [inhibitor, single point]
COc1ccc([N+](=O)[O-])cc1NC(=O)CCN1CCN(c2ccccc2)CC1	inactive
COc1ccc(CCN(C)CC(O)c2ccccc2)cc1OC (stereo unspecified)	inactive
COc1ccccc1CCNC(=O)CCn1nc(C)c2c(C)n(-c3ccccc3)nc2c1=O	inactive
Cc1c(C(=O)N2CCC[C@H]2CO)oc2c(F)cccc12	active: 14.7 µM
COc1ccc(N2CCN(CC(=O)Nc3ccccc3C(=O)NCc3ccccc3)CC2)cc1	inconclusive: 13.1 µM [inhibitor, single point]
CCCNC(=O)C(Cc1ccccc1)NC(=O)Cc1ccccc1 (stereo unspecified)	inconclusive: 0.0586 µM [inhibitor, partial curve, poor fit]
CC(C)[C@H](NC(=O)[C@@H]1Cc2ccccc2CN1)C(=O)Nc1ccc2c(c1)OCCO2	inconclusive: 18.5 µM [inhibitor, single point]
Cc1ccc(F)cc1NC(=O)c1c(-c2ccccc2)noc1C	inconclusive: 14.7 µM [inhibitor, single point]
CCOC(=O)N1CCN(C(=O)C(NC(=O)c2ccco2)C(C)C)CC1 (stereo unspecified)	inconclusive: 18.5 µM [inhibitor, single point]
Cc1cc(Cn2nc(C(=O)NCC3CC3)cc2-c2ccccc2)on1	inconclusive: 9.28 µM [inhibitor, partial curve, poor fit]
O=C(NCCc1cccc(Cl)c1)c1ccc(OC2CCN(Cc3ccccn3)CC2)cc1	inconclusive: 13.1 µM [inhibitor, partial curve, poor fit]
CCCOc1cccc(C2/C(=C(/O)c3ccncc3)C(=O)C(=O)N2CCCN(C)C)c1 (stereo unspecified)	inactive
CCC(C)(C)c1ccc(Oc2ccc(N)cc2)cc1	inconclusive: 10.4 µM [inhibitor, single point]

2 compounds picked at random from the list so far, as already listed:
Structure (SMILES)	Potency
COc1ccc([N+](=O)[O-])cc1NC(=O)CCN1CCN(c2ccccc2)CC1	inactive
CCn1c(CNc2ccc(Cl)cc2)nnc1SCc1ccc(Cl)cc1	inactive
